Results taken from PubChem BioAssay AID1347423 (Functional Genomics Laboratory (NCATS/FGL), 2020).
Among all 52,000 sequences or so, about 210 (0.4%) were called active.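 Rule for the calls: active = gene whose silencing raises cell survival under the drug, median off-target-corrected z-score across its silencing RNAs 2 or more; inactive = the rest.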 This is one part of the list.

Assay: Resistance to Poly (ADP-Ribose) Polymerase inhibitor: Gene Identification via Genome-wide siRNA Screen
Conditions: mouse BRCA2 R2336H ES cells, olaparib, CellTiter-Glo viability; stronger effect = higher value
How it was run: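 Mouse BRCA2 R2336H ES cells were reverse-transfected with siRNA (20 nM final), treated at 48 h with 500 nM olaparib, and read by CellTiter-Glo after 72 h. Scores: MAD-based z per siRNA, median per gene, seed off-target correction.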

Sequence	z-score
GGAGACUGUCUAAUAAAAATT against 6330406I15Rik	inactive: -0.612
GGACCAGAUCCUUCUGCUATT against Ubd	inactive: -2.2
GGGACUGUACUCAUUUCUATT against 1700045I19Rik	inactive: -0.632
GGUAACCUACAGUCAAAGUTT against Gckr	inactive: -0.643
AUAGACUCUUCCAUCGGCATT against Ppp1r13l	inactive: -2.37
CCCUCUAUCAGUUACCCUGTT against Mcpt2	inactive: -0.902
GGCAGAACUUACACGAGAUTT against Pphln1	inactive: -0.825
CCUAAUGGAAGGGAAGCCATT against 2810437L13Rik	inactive: -0.624
GGCUAAGUCCAACUUUAGATT against Tmprss5	inactive: -0.00948
CCCAGGACUCGGAUUAGAATT against 4933406J04Rik	inactive: 0.0905
GGGAUCUGUGUUGAAUGAATT against BC064033	inactive: -0.647
UUGUCCUGGUCUCCUAUGCTT against Olfr141	inactive: -1.98
GGUCUACUGGCGUAAUUACTT against BC025105	inactive: -0.682
GCUGGUGGCAAUCAGAAAATT against Nppc	inactive: 0.237
GCAAGGAAGGUUUUCAAGUTT against Gsta2	inactive: 0.714
GGAAAUAAAUGGCAGCAUGTT against H2-T3	inactive: 0.27
GCCAUUUUAUUGAAGCAAGTT against Sema3a	inactive: -1.72
CCCUAGGAGUACAUCAAAUTT against 1700001O22Rik	inactive: 1.23
GCAAUGCCUCAUUUCCUUGTT against 4930429A08Rik	inactive: -1.51
GCUGUGGAAUAAAACUAUUTT against BC003885	inactive: -0.229
GGUAGACUAUGCUAAAUUATT against Pabpc5	inactive: 0.646
GCCUAUCGUGGAGAUUCUGTT against Cab39l	inactive: -0.837

Sequence	z-score
GGCCAUUUCGUACCUUUGUTT against Plxna3	inactive: -0.0637
GGCAACUAUAAGUACAUAGTT against Gsta3	inactive: -0.356
GGAGGAAGUGAAGAAGAUATT against Echdc1	inactive: 2.34
GCUGAAGAAUGCUAUAAUUTT against Olfr63	inactive: -0.00337
GGCCUAUUCUACCUGUAGCTT against Olfr167	inactive: -0.236
GGAGAAACUGAUGACAGUGTT against Plcb3	active: 1.47
CCAUUGAUCUGAUGCAAAATT against Tacstd1	inactive: 1.55
GGUGCCGCCUUUGAUUGCATT against Gsto1	inactive: -2.05
GCAUUAUGUCAGUAGCUCATT against Snrpb	inactive: -2.71
CGCCUACUGCUUCAGGAUATT against 1810009H17Rik	inactive: 0.393
GAAAGCUAACCUCUUUCUGTT against Ang2	inactive: 0.378
GGAAAUGCCACUAAAGAGUTT against Zdhhc3	inactive: -0.899
CGGAGUUCAGCAUUUACCCTT against 3110001K24Rik	inactive: 0.0824
GGAGGUCCUGAAACACCUCTT against Apc2	inactive: 0.268
CCAAUCCCAUCCUCAUCCUTT against Fev	inactive: -0.694
GCAGGGACUAACUUUCACCTT against Wdr8	inactive: -0.321
GCACCUUAAUUCUUCGCCATT against AI415330	inactive: 0.624
GGAUACUGCCAUUCAUAGGTT against 9230104L09Rik	inactive: 0.597
CGAAUUUACAAGUUGUGCUTT against 1810048J11Rik	inactive: 1.36
GGAUCUUAUUAUUUGAUCCTT against 0610027B03Rik	inactive: 0.553
GGAGCAUUUUUUUGUUUCUTT against Cul4b	inactive: -2.16
GGAGUGAAGAUCUGAUUGCTT against Aaas	inactive: 0.323

Random excerpt: 3 entries already listed, in no set order.
Sequence	z-score
GGAGGUCCUGAAACACCUCTT against Apc2	inactive: 0.268
GAAAGCUAACCUCUUUCUGTT against Ang2	inactive: 0.378
GCACCUUAAUUCUUCGCCATT against AI415330	inactive: 0.624

Some values from the list.
z-score with CCAAUCCCAUCCUCAUCCUTT against Fev reads inactive: -0.694
z-score with GGGACUGUACUCAUUUCUATT against 1700045I19Rik reads inactive: -0.632
z-score with GGUGCCGCCUUUGAUUGCATT against Gsto1 reads inactive: -2.05

(next part)

Sequence	z-score
GGACUCGUUGGUCAUGUCUTT against A730098P15	inactive: -0.282
GGAUGGUCUUAGGAUUACGTT against Fgf15	inactive: 1.1
GCUAAUGCUAGUGAAAUUCTT against 3000004N20Rik	inactive: 0.979
GGUCAUGGUCUGAGAUUCUTT against Txnl4	inactive: 0.353
GCUACGACGUAACUGACAATT against Rpl3l	inactive: 0.232
GGUGUGAAACGAAAAAAGATT against Hivep1	inactive: 0.43
CCACUCAACAUGACAACUATT against Chrna2	inactive: -0.0952
GGAGAAUGUGCAUAAACUGTT against Pitpn	inactive: -2
GCCUUAGAAGUUAACAUGUTT against AI848100	inactive: 0.246
GGCCAUGCCUUUGUAUGCUTT against Oatl1	inactive: 2.1
GGCGAAUGCAUAAACUAAATT against Abat	inactive: 0.779
CGACCUGACCUUUUUUUCCTT against Ipmk	inactive: -0.069
GCAAGUCGUAAGCCUCAGGTT against Mrps10	inactive: 0.0595
GGUGUCACAUUCUUUUUUUTT against Pcolce2	inactive: 0.35
GAGCAGCUGAUCACUGGAATT against Tuba3	inactive: 0.645
GCGAGUUGAUGAGCUCUAGTT against Sult1b1	inactive: -1.53
GGUUGAAGUCUAUUCUCGATT against Trap1	inactive: 0.329
GGAAGAACAGGAAGAAGUGTT against Pank1	inactive: -0.356
CGACAUAGCAAUCACAUGATT against Lmo2	inactive: 1.23
CGCAAACCUACAGCUCUGATT against Rhox10	inactive: -1.11
GCCGGAAUGAAUACAUGCGTT against Elk1	inactive: 1.13
CCAAAGUUCCCUUAGCCAUTT against 9830165K03Rik	inactive: 1.04
